Patent publication US7657380
No constants are given. Whether binding was seen depends on the method and setting. Some results given as binding are weak or reduced against the parent protein; the word gives no strength.

Target: EGFR extracellular domain (R&D Systems) (UniProt P00533)
Assay: SPR, Fab over EGFR on CM5 chip

B1: ICR62 L2/H9 Fab (Fab, V domains shown)
VH: QVQLQQSGPGLVKPGASVKVSCKGSGFTFTDYKIHWVRQAPGKSLEWMGYFNPNSGYSTYNEKFQGRVTITADKSTDTAYMELSSLRSEDTAVYYCTRLSPGGYYVMDAWGQGTLVTVSS
VL: DIQMTQSPSSLSASVGDRVTITCRASQNINNYLNWYQQKPGKAPKRLIYNTNNLQTGIPSRFSGSGSGTDYTLTISSLQPEDFATYFCLQHNSFPTFGAGTKLEIK
binding: binds
